Source: US20180062087A1, “Organic Compound, Organic Semiconductor Material, Organic Thin Film And Method For Producing The Same, Organic Semiconductor Composition, And Organic Semiconductor Device” (Nippon Kayaku Kabushiki Kaisha, priority 2015, published 2018)

Test: Evaluation of organic transistor characteristics (spin-coated top-contact bottom-gate transistor)
Details: for Applicability to the solution process: film formation by spin coating at 25° C.; for Threshold voltage / Hole mobility: organic thin film spin coated at 25° C.; for Threshold voltage / Hole mobility / On/off ratio: drain voltage −30V, gate voltage +20V to −80V; for Hole mobility: calculated from Formula (a); for On/off ratio: ratio of ON-current to OFF-current
Description: Using the solutions containing Organic compounds 1, 2, 5, and 6 which were obtained in Example 11, organic thin films were formed on n-doped silicon wafers each having a SiO2 thermal oxide film, at 25° C. by spin coating. On each of the organic thin films, Au was vacuum deposited using a shadow mask to give a source electrode and a drain electrode. For these organic transistors, the channel length was set at 50 μm, and the channel width was set at 2.5 mm. In the organic transistors of these Examples, each being composed of the n-doped silicon wafer having a SiO2 thermal oxide film, the SiO2 thermal oxide film served as the insulator layer (4), and the n-doped silicon wafer served as both the substrate (6) and the gate electrode (5).
The performance of the organic transistor depends on the amount of electric current that flows when an electrical potential is applied between the source electrode and the drain electrode while an electrical potential is kept applied to the gate electrode. Mobility, which is one of the characteristics of the organic transistor, can be determined by measuring the value of the electric current. Mobility can be calculated by Formula (a) which expresses electrical characteristics of carrier seeds generated in the organic semiconductor layer when a gate electrical field is applied to the SiO2 thermal oxide film as the insulator layer.
In this formula, Id represents the saturated source-drain current value, Z represents the channel width, Ci represents the capacitance of the insulator, Vg represents the gate electrical potential, Vt represents the threshold potential, L represents the channel length, and μ represents the mobility to be determined (cm^2/Vs). Ci is determined by the dielectric constant of the SiO2 insulating film. Z and L are determined by the device structure of the organic transistor. Id and Vg are determined when the value of the electric current of the organic transistor is measured. Vt is obtained from Id and Vg. By assigning these values to Formula (a), mobility at the gate electrical potential of each organic transistor can be calculated.
The hole mobility, the threshold voltage, and the ratio of ON-current to OFF-current (“on/off ratio”) of the organic transistor, calculated from Formula (a), are shown in Table 3.

Compound	Applicability to the solution process	Threshold voltage [V]	Hole mobility [cm^2/Vs]	On/off ratio
CCCCCCCCc1ccc2sc3c4cc5cc(-c6ccccc6)ccc5cc4sc3c2c1 [Organic compound 5]	applicable to the solution process	−4.8	2.58	10^8
CCCCCCCCCCc1ccc2cc3sc4c5cc(-c6ccccc6)ccc5sc4c3cc2c1 [Organic compound 6]	applicable to the solution process	−23	1.97	10^7
